Test results published in PMC3927958.
These are yes or no findings as the source states them, for the method shown. In cells and extracts the contact can be indirect. A result given as binding can be weak or reduced; the word gives no strength.

Biological target: T1, junctional adhesion molecule-A (mouse (endogenous in lung endothelial cells)) (UniProt O88792)
T1 sequence: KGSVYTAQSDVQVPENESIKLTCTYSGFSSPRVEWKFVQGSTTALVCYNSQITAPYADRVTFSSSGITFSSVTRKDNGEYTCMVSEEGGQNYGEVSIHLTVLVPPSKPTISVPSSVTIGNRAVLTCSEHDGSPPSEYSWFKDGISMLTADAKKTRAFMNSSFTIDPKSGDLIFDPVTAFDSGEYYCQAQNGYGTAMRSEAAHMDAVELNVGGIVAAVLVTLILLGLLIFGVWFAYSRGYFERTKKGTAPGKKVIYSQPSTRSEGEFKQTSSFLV
Experiment: co-IP; confluent murine JAM-A-WT endothelial cells incubated with dithiobis-(succinimidyl) propionate (cross-linker) 30 min at 37°C, lysed in RIPA buffer; JAM-A or EPAC-2 immunoprecipitated overnight from 8 mg total extract, IgG as control; immunoblotting

binding: binds
Substance: small GTPase Rap-1
